Substitutions are numbered along the chain they refer to. Results are given in words; binding and its absence hold for the method and conditions named. Some entries that bind do so weakly or less than the wild type. Blank lines part the entries; values can stand above or below the binder they belong to.
Target: human MUC1 peptide … (human)
Assay: PEPperMAP linear peptide microarray, antibody at 1 ug/ml

binding: binds
B1: anti-MUC1 antibody HT186-D11 (antibody, V domains shown)
VH: QMQLVQSEAELKKPGASVKVSCKASGYSFTGHYMHWVRQAPGQGLEWMGWIDPVTGGTKYAQNFQGWVTMTRDTSIRTAYLELSRLRSDDTAMYYCAREVTGDRGQFDKWGQGTLVTVAS
VL: QSVLTQPPSVSVAPGKTARITCGGNNIGSKSVHWYQQKPGQAPALVIYYGSNRPSGIPERFSGSNSGNTATLTISRVEAGDEADYYCQVWDSSSDWVFGGGTKLTVL

binding: binds
B2: 1993-H02 with an HT186-D11 light chain (anti-MUC1 antibody H02) (antibody, V domains shown)
VH: B1 VH with G31S, Y33F, V100A, T101R, G102A
VL: B1 VL

Source: patent US20230310629A1, “BISPECIFIC ANTIBODY-DRUG CONJUGATES TARGETING EGFR AND MUC1 AND USES THEREOF” (Merck Patent GmbH, priority 2020, published 2023)
